From PubChem BioAssay AID1347423 (Functional Genomics Laboratory (NCATS/FGL), 2020)
In all, about 52,000 sequences went through this assay and about 210 (0.4%) were called active.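 The calls were made as follows: active = gene whose silencing raises cell survival under the drug, median off-target-corrected z-score across its silencing RNAs 2 or more; inactive = the rest.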 This is one part of the list.

Test: Resistance to Poly (ADP-Ribose) Polymerase inhibitor: Gene Identification via Genome-wide siRNA Screen
Settings: mouse BRCA2 R2336H ES cells, olaparib, CellTiter-Glo viability; active compounds read high
Summary of the method: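 Mouse BRCA2 R2336H ES cells were reverse-transfected with siRNA (20 nM final), treated at 48 h with 500 nM olaparib, and read by CellTiter-Glo after 72 h. Scores: MAD-based z per siRNA, median per gene, seed off-target correction.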

| Sequence | z-score |
| --- | --- |
| AGCGGACUGAUACAUGAAATT against 2900090M10Rik | inactive: 1.76 |
| AGAGUUGUCCAUGUUCCAGTT against Six3 | inactive: 0.477 |
| CCUAGAGCUGAAGAGAUUATT against Aif1 | inactive: 0.206 |
| CCAACAACUCUGUAUGCUGTT against Olfr1355 | inactive: 1.1 |
| GGUGUCUUCAGUUAUAGAUTT against Pard6a | inactive: -0.373 |
| CGAACUGCCUUCCUUAAUATT against Hist1h1c | inactive: -0.839 |
| GGAAGGACAAAGAAAGCCUTT against Fbxw4 | inactive: 0.661 |
| GCCAUAUCUGGUCACAUGUTT against 3830402I07Rik | inactive: -0.223 |
| GGGUGCUUACAGAAUAUCUTT against 1700025F22Rik | inactive: -0.341 |
| GCCUGCACGAUUGGAAUUATT against Aqr | inactive: -0.941 |
| GGUGAAUGCUUGUCUGCACTT against Ng23-pending | inactive: 0.218 |
| GGAUCUCUACCAUUUGAUUTT against Rps13 | inactive: -2.88 |
| GGAAGUGACACGAUUUGAGTT against Snx1 | inactive: 0.526 |
| GGUCAGAAAAAAGUGUAUUTT against A630054L15Rik | inactive: -0.612 |
| CGCAGACAGUUUGAGGCUGTT against 1700034P14Rik | inactive: -0.696 |
| GGUGGAAUAUAUUGAGUAUTT against BC031748 | inactive: -2.41 |
| GGGAAAGAUAAAUGUUUCCTT against Gucy1b3 | inactive: 3.02 |
| GCCUGUGGUGAUUCUCUUGTT against 1110038M16Rik | inactive: -0.344 |
| GGGAAGAAGGUUAGCUAAUTT against Trpc6 | inactive: 2.16 |
| GCUCUACUGCAUCAUUUUATT against Apobec1 | inactive: 0.496 |
| GGUGCCAACUUAGAGAGCGTT against E430018J23Rik | inactive: -0.301 |
| GGGUCACGCAUCCUAAGAATT against Blvrb | inactive: 0.505 |

| Sequence | z-score |
| --- | --- |
| GGAAACCUGCUCAUUGUCGTT against Olfr1233 | inactive: -0.862 |
| GGCAUCAACAGAAUAACCATT against Tomm34 | inactive: -1.3 |
| GGCCAGGUAUAAAUAUAUATT against Dusp8 | inactive: 0.809 |
| GGAGUUUUUGGGUAACCUGTT against Mfge8 | inactive: 0.446 |
| GGAAUGAGGAAAGAGGAGATT against Rgs17 | inactive: -0.118 |
| CGAAAAAACAUCAGACCCATT against Sulf1 | inactive: 0.253 |
| GGUAAAUUCCUUAACUCACTT against Utrn | inactive: 0.938 |
| GGGAUGCGGAGGUUUAAGATT against Dhx37 | inactive: -1.39 |
| GGCAAGCACUCUUUAGACATT against Cd2bp2 | inactive: -0.889 |
| GCAAAUUAUUGGAUGAUGCTT against 2700085E05Rik | inactive: 0.354 |
| GGACUCUUCUUGGUGAUGUTT against Slc22a18 | inactive: 0.425 |
| GGAUGUUCUACUGCUACACTT against 1810033A06Rik | inactive: 0.098 |
| GGAAUUUCAGCCAGUUUCUTT against Sox5 | inactive: 0.178 |
| GCGAUUUCCAUGUGAAUUCTT against Zfp462 | inactive: -0.438 |
| CGAACCUGUUGACGGAUUCTT against Wnt1 | inactive: 1.48 |
| GGAGAAAUUCUUCAAUGAGTT against Syt2 | inactive: -0.0649 |
| GGAAUAGUGGCUUCUUUUATT against Rshl2 | inactive: 0.0767 |
| GCGAAGCGAAUCCUUUUUCTT against Fosl2 | inactive: -0.682 |
| GCAGAUCAAACAGCACUCGTT against 2900090M10Rik | inactive: 0.345 |
| GGCAACCAAUCAAAUUGUGTT against Npepps | inactive: -1.55 |
| CAAAGCCACCUCGCCCUAUTT against Nkx2-6 | inactive: -0.687 |
| GGAAAGCACGUCCUCUUUGTT against Gpx5 | inactive: -0.49 |

| Sequence | z-score |
| --- | --- |
| CCUCAGACUACCUUGUGGUTT against Otub1 | inactive: 0.849 |
| GCAUCUGGUAAAAGGAGCATT against Rpap1 | inactive: -0.222 |
| GCGAAUCUUUCAUAACAGUTT against AA959742 | inactive: 0.838 |
| GAUGGAGAAACUGAAGAAGTT against Olfml2a | inactive: -0.0631 |
| GGUAACCUGGAUGGAGAAGTT against Mrps24 | inactive: -2.39 |
| GGUGCUUUGUUAUCCAUAATT against Tnfrsf26 | inactive: -0.909 |
| GGCUGUGUUCUCAAACAGCTT against St6gal1 | inactive: 0.989 |
| GGAAAAUCGGUUAUCAUAATT against Pde7a | inactive: -0.3 |
| GCCUUACGCACUCUCUAAATT against Col4a2 | inactive: 0.0954 |
| GCAAGUUAGGCCUUUUAAATT against Cycs | inactive: 1.63 |
| GCCCUUACAUUUUAUACUATT against Zfp93 | inactive: 0.288 |
| GGUGAAUGAGAUGUCGGCCTT against Loh12cr1 | inactive: -0.547 |
| GGGCAAGAUGAAGAGGAUUTT against Ptdss2 | inactive: 0.627 |
| GCACUUAUACUACUUAGUUTT against Abca8a | inactive: -0.464 |
| CGUAAGGAAGAUAACUUUUTT against Gatm | inactive: 0.48 |
| CCAACCACAGGAUCAGAUGTT against 9930111I18Rik | inactive: 0.141 |
| GCUGUUCUAAAUCCAAACCTT against A930037J23Rik | inactive: 2.49 |
| UCCUGUUCGUUCCUUUCCUTT against Olfr740 | inactive: 1.17 |
| CGUACUAUAGUAAAUCCAGTT against Clk1 | inactive: 0.404 |
| CGAACUACUGACCCAGCUUTT against 4833422F24Rik | inactive: -1.96 |
| GGCAGAGGCAGACAAGAUUTT against Scg3 | inactive: 0.674 |
| GCCACGACAACAAAUCCCATT against Lbr | inactive: 0.947 |

Exported tab-delimited: part of the list above
Sequence	z-score
CCUCAGACUACCUUGUGGUTT against Otub1	inactive: 0.849
GCAUCUGGUAAAAGGAGCATT against Rpap1	inactive: -0.222
GGUGCUUUGUUAUCCAUAATT against Tnfrsf26	inactive: -0.909
GGAAAAUCGGUUAUCAUAATT against Pde7a	inactive: -0.3
GCCUUACGCACUCUCUAAATT against Col4a2	inactive: 0.0954
GCAAGUUAGGCCUUUUAAATT against Cycs	inactive: 1.63
GCCCUUACAUUUUAUACUATT against Zfp93	inactive: 0.288
GGGCAAGAUGAAGAGGAUUTT against Ptdss2	inactive: 0.627
GCACUUAUACUACUUAGUUTT against Abca8a	inactive: -0.464
CGUAAGGAAGAUAACUUUUTT against Gatm	inactive: 0.48
CCAACCACAGGAUCAGAUGTT against 9930111I18Rik	inactive: 0.141
GCUGUUCUAAAUCCAAACCTT against A930037J23Rik	inactive: 2.49
CGUACUAUAGUAAAUCCAGTT against Clk1	inactive: 0.404
CGAACUACUGACCCAGCUUTT against 4833422F24Rik	inactive: -1.96
GGCAGAGGCAGACAAGAUUTT against Scg3	inactive: 0.674
GCCACGACAACAAAUCCCATT against Lbr	inactive: 0.947

In another format: entries from further up
Sequence	z-score
GGUGAAUGAGAUGUCGGCCTT against Loh12cr1	inactive: -0.547
CCAACCACAGGAUCAGAUGTT against 9930111I18Rik	inactive: 0.141
